PubChem BioAssay AID588590 (National Center for Advancing Translational Sciences (NCATS), 2011)
Out of some 390,000 compounds screened, about 4,000 (1%) were called active. The shares of active, inactive and inconclusive entries below differ from those in the screen. Calls follow the shape of the dose curve; as a rule, active = well fitted inhibition curve with a large enough effect; inconclusive = small, poorly fitted or top-dose-only effect, or another doubt; inactive = no such curve, though single readings can be large or run the other way. Potencies beside an inconclusive call are fits to weak or partial responses and may not hold up.
Potency is read from the fitted curve at half-maximal effect.

The chains behind the UniProt entries cited, without tags or fusion partners. Where a name states a change or a piece, a line headed by the entry shows the natural chain unless it says otherwise.
UniProt Q9UNA4: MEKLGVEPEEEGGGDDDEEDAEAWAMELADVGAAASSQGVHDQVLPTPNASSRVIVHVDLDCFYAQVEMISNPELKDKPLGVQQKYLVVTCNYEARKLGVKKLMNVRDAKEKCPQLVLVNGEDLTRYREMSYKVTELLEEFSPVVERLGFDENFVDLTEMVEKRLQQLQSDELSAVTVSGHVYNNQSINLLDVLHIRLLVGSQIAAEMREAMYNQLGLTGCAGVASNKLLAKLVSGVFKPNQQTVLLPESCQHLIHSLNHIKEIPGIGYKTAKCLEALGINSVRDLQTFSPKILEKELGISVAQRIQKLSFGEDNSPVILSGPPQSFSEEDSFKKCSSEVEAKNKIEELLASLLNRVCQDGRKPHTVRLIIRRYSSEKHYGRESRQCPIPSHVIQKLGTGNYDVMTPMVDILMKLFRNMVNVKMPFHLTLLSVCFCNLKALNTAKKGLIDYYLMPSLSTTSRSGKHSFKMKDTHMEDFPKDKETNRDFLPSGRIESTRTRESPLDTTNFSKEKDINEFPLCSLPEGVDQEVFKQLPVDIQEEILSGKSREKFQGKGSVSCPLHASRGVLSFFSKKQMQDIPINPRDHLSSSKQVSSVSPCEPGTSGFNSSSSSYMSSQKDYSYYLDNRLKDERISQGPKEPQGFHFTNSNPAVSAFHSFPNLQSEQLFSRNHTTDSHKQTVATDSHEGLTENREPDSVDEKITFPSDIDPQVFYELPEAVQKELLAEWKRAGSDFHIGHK

Each molecule was assayed against DNA polymerase iota (Homo sapiens) (UniProt Q9UNA4) (assay: qHTS for Inhibitors of Polymerase Iota). Conditions: Pol iota fluorescent replication assay, 10 min; series mostly up to 115 µM.
How it was run: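 Pol iota at 10 nM preincubated 15 min with compounds at room temperature; reaction started with fluorescent substrate, 50 nM final. Fluorescence read kinetically at 0 and 10 min; buffer-only wells as negative control.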
In the case of `CC1(C)CCCC2=C1CC1C(=O)N(N)C(=O)C1C2` (stereo unspecified), the Potency is reported as inconclusive: 89.1 µM [inhibitor, single point].
For `CCc1c(O)cc(=O)n(-c2ccccc2)c1-c1ccccc1`, the Potency was inconclusive: 20 µM [inhibitor, full curve].
In the case of `CN1CC(=O)N(CC(=O)Nc2ccc(N(C)C)cc2)c2ccccc2C1=O`, the Potency is reported as inconclusive: 39.8 µM [inhibitor, partial curve, poor fit].
In the case of `CN(C)S(=O)(=O)N(CC(=O)N1CCOCC1)c1ccccc1`, the Potency is reported as inconclusive: 79.4 µM [inhibitor, single point].
With `COc1cccc(CN2C(=O)C3(SCC(=O)N3c3cc(C)cc(C)c3)c3ccccc32)c1` (stereo unspecified) the Potency was inconclusive: 11.2 µM [inhibitor, partial curve, poor fit].
In the case of `COc1cc(S(N)(=O)=O)c(OC)cc1N`, the Potency is reported as inconclusive: 2.82 µM [inhibitor, full curve, poor fit].
With `COc1cccc(OC)c1C(=O)Nc1nc(-c2ccccc2)cs1` the Potency was “inactive”.
In the case of `Cc1coc2c1c(C)cc1oc(=O)c(CC(=O)NCc3ccc(Cl)cc3)c(C)c12`, the Potency is reported as “inactive”.
With `O=C(NCCc1ccc(F)cc1)C(=O)NCC(c1ccc2c(c1)OCO2)N1CCOCC1` (stereo unspecified) the Potency was inconclusive: 22.4 µM [inhibitor, full curve, poor fit].
With `COc1ccccc1-c1nnc(SCC(=O)c2c(N)n(C3CC3)c(=O)[nH]c2=O)n1C` the Potency was inconclusive: 8.91 µM [inhibitor, single point].
`COCCNC(=O)CSc1nc2scc(-c3ccccc3)c2c(=O)[nH]1` was tested, and the Potency was inconclusive: 10 µM [inhibitor, partial curve, poor fit].
In the case of `Cc1cc2c(Nc3ccc(C(=O)O)cc3)ncnc2s1`, the Potency is reported as inconclusive: 6.31 µM [inhibitor, full curve, poor fit].
In the case of `O=C(COc1coc(CN2CCc3ccccc3C2)cc1=O)Nc1cccc([N+](=O)[O-])c1`, the Potency is reported as inconclusive: 25.1 µM [inhibitor, single point].
For `Cc1ccc(C(=O)Nc2cccc(C(=O)O)c2)cc1`, the Potency was “inactive”.
With `CC(=O)c1cc(Cl)ccc1OCC(=O)Nc1cccc(S(=O)(=O)N2CCCC2)c1` the Potency was inconclusive: 89.1 µM [inhibitor, partial curve, poor fit].
In the case of `Cc1ccc(C)c(CN2C(=O)c3ccccc3S(=O)(=O)c3ccc(C(=O)N4CCN(C)CC4)cc32)c1`, the Potency is reported as inconclusive: 89.1 µM [inhibitor, single point].
In the case of `Cn1ccnc1Sc1nc2ccccc2nc1NS(=O)(=O)c1ccccc1`, the Potency is reported as inconclusive: 31.6 µM [inhibitor, partial curve].
With `CCOC(=O)c1ccc(Nc2nc(C(=O)OCC)nc3ccccc23)cc1` the Potency was inconclusive: 11.2 µM [inhibitor, partial curve, poor fit].
With `COc1ccccc1CC(=O)Nc1ccc(S(=O)(=O)N2CC(C)CC(C)C2)cc1` (stereo unspecified) the Potency was inconclusive: 89.1 µM [inhibitor, single point].
With `COc1ccc(CNC(=O)Cc2coc3ccc(C(C)C)cc23)cc1` the Potency was “inactive”.
In the case of `Cc1cc(C)c(S(=O)(=O)NCC(c2ccc(N(C)C)cc2)N2CCc3ccccc32)c(C)c1` (stereo unspecified), the Potency is reported as inconclusive: 39.8 µM [inhibitor, partial curve, poor fit].
`Clc1ccc(C2=C3CCCCn4c(-c5ccccc5)c[n+](c43)C2)cc1` was tested, and the Potency was “inactive”.
In the case of `Cc1ccc(NC(=O)CN(C)CC(=O)Nc2cccc(F)c2)cc1S(=O)(=O)N1CCCCCC1`, the Potency is reported as “inactive”.
`CCC[C@@H]1C[C@@H](C(=O)N[C@H]([C@@H](C)O)[C@H]2O[C@H](SC)[C@H](O)[C@@H](O)C2O)N(C)C1` (stereo partly specified) was tested, and the Potency was inconclusive: 100 µM [inhibitor, single point].
With `Cn1c(=O)c(-c2ccccc2N)nc2ccccc21` the Potency was inconclusive: 79.4 µM [inhibitor, full curve, poor fit].
With `Cc1ccc(S(=O)(=O)N2CCOCC2)cc1C(=O)N(C)CCOc1ccc(Cl)cc1` the Potency was inconclusive: 100 µM [inhibitor, partial curve, poor fit].
With `Cc1cc(OCCn2cc(C(=O)c3ccco3)c3ccccc32)ccc1Cl` the Potency was inconclusive: 89.1 µM [inhibitor, single point].
With `Oc1ccccc1Oc1c(F)c(F)nc(N2CCCC2)c1F` the Potency was inconclusive: 50.1 µM [inhibitor, partial curve, poor fit].
`C#CCOCCOCCOCCNc1nc(N2CCN(C(=O)[C@H]([C@@H](C)O)n3cc(CCCCN)nn3)CC2)nc(N2CCN(C(=O)[C@H](Cc3ccc(O)cc3)n3cc(CCO)nn3)CC2)n1` was tested, and the Potency was inconclusive: 17.8 µM [inhibitor, partial curve, poor fit].
In the case of `N#Cc1c(-c2ccccc2)nc(SCC(=O)N(c2ccccc2)c2ccccc2)[nH]c1=O`, the Potency is reported as “inactive”.
In the case of `O=C(NCc1cc(C(F)(F)F)ccc1Cl)c1cccc2c1C(=O)c1ccc(N3CCOCC3)cc1S2(=O)=O`, the Potency is reported as inconclusive: 5.01 µM [inhibitor, full curve, poor fit].
With `CCOC1=C/C(=C/c2c(N)n3nc(CC(=O)N4CCCC4)sc3nc2=O)C=CC1=O` the Potency was inconclusive: 14.1 µM [inhibitor, full curve, poor fit].
In the case of `CCOC(=O)c1c(C)[nH]c(C)c1C(=O)COC(=O)c1sccc1C`, the Potency is reported as inconclusive: 89.1 µM [inhibitor, partial curve].
For `Nc1ccc2c(S(=O)(=O)O)cccc2c1S(=O)(=O)O`, the Potency was inconclusive: 17.8 µM [inhibitor, partial curve, poor fit].
`O=C(NC1CCCCC1)c1ccc(N2CCCC2=O)cc1` was tested, and the Potency was inconclusive: 28.2 µM [inhibitor, single point].
With `O=C1CN(C(=O)CSc2nnc(C3CC3)n2-c2ccccc2)c2ccccc2N1` the Potency was inconclusive: 17.8 µM [inhibitor, single point].
With `COc1cccc(/C=N/NC(=O)c2cc(-c3ccccn3)nc3ccccc23)c1O` the Potency was “inactive”.
With `O=C(CCCCO)CCCCCCCC[C@H]1N[C@H](CO)[C@H](O)[C@@H]1O[C@@H]1O[C@H](CO)[C@@H](O)[C@H](O)[C@H]1O` the Potency was inconclusive: 89.1 µM [inhibitor, single point].
In the case of `C=C1CCN([C@@H](CC(C)C)C(=O)NCc2ccco2)S(=O)(=O)c2ccccc21`, the Potency is reported as inconclusive: 10 µM [inhibitor, partial curve, poor fit].
`Cc1oc2c(cc(NS(=O)(=O)c3ccc(F)cc3)c3ccccc32)c1C(=O)OCc1ccccc1` was tested, and the Potency was inconclusive: 89.1 µM [inhibitor, single point].
`FC(F)(F)c1nc(Sc2ncccc2C(F)(F)F)n[nH]1` was tested, and the Potency was inconclusive: 14.1 µM [inhibitor, full curve, poor fit].
For `O=C(C1CC1)N1CCN(c2ccc(O)cc2)CC1`, the Potency was “inactive”.
For `O=C(COC(=O)c1ccc([N+](=O)[O-])s1)Nc1ccccc1`, the Potency was active: 89.1 µM.
`CC1(C)C(=O)Nc2ccccc2N1C(=O)COc1ccc(C#N)cc1` was tested, and the Potency was inconclusive: 50.1 µM [inhibitor, partial curve, poor fit].
`Cc1ccc(/C=N/NC(=O)c2ccc(Br)o2)s1` was tested, and the Potency was inconclusive: 89.1 µM [inhibitor, single point].
`O=C(O)CN1C(=O)C2C3CC(C2C1=O)C1C(c2ccc(Cl)cc2)c2sc(=O)[nH]c2SC31` (stereo unspecified) was tested, and the Potency was inconclusive: 22.4 µM [inhibitor, single point].
In the case of `Cc1ccsc1C(C(=O)NC1CCCCC1)N(C(=O)Cc1cccs1)C1CC1` (stereo unspecified), the Potency is reported as inconclusive: 89.1 µM [inhibitor, full curve].
For `CC(=O)O/N=C1\C(=O)N(Cc2ccc(C)cc2)c2ccccc21`, the Potency was inconclusive: 7.94 µM [inhibitor, partial curve, poor fit].
In the case of `C/C(=N\NC(=O)COc1ccccc1[N+](=O)[O-])c1cccc(NC(=O)c2ccncc2)c1`, the Potency is reported as inconclusive: 25.1 µM [inhibitor, single point].
In the case of `CCc1ccccc1NC(=O)CN(C)C(=O)c1cccc(S(=O)(=O)N2CCCCCC2)c1`, the Potency is reported as “inactive”.
For `NC(=O)CC(NC(=O)Cc1cccc2ccccc12)c1ccc(N2CCN(c3ccccn3)CC2)c([N+](=O)[O-])c1` (stereo unspecified), the Potency was inconclusive: 44.7 µM [inhibitor, partial curve, poor fit].
With `CCc1nnc(NS(=O)(=O)c2ccc(NC(=O)c3ccccc3C)cc2)s1` the Potency was “inactive”.
For `Cc1cc2nc(-c3ccc(SCc4ccccc4C#N)nc3)[nH]c2cc1C`, the Potency was inconclusive: 20 µM [inhibitor, full curve, poor fit].
For `CC(C)c1ccc2[nH]c3nc(SCC(=O)NC4CC4)nnc3c2c1`, the Potency was inconclusive: 79.4 µM [inhibitor, partial curve, poor fit].
In the case of `O=C(NCc1ccco1)c1ccc2c(c1)N(Cc1ccccc1F)C(=O)c1ccccc1S2(=O)=O`, the Potency is reported as inconclusive: 39.8 µM [inhibitor, partial curve, poor fit].
With `O=C(C=Cc1ccccc1O)c1ccccc1O` the Potency was inconclusive: 25.1 µM [inhibitor, single point].
With `CCCc1nc(SCC(=O)Nc2cc(C)on2)c2c(=O)n(C)c(=O)n(C)c2n1` the Potency was inconclusive: 89.1 µM [inhibitor, single point].
`CCC(C)SCc1nc2ccccc2[nH]1` (stereo unspecified) was tested, and the Potency was inconclusive: 1 µM [inhibitor, partial curve, poor fit].
In the case of `Cc1nc(=O)cc(-c2ccccc2)n1-c1ccccc1`, the Potency is reported as “inactive”.
With `CCOC(=O)COc1nc(-c2ccc(C)cc2)cc(-c2ccco2)c1C#N` the Potency was “inactive”.
For `Nc1ccc2oc(Cc3ccc(Cl)cc3)nc2c1`, the Potency was inconclusive: 25.1 µM [inhibitor, full curve, poor fit].
